From the supplement of paper PMC10735217 come the findings set out here.

Molecules are shown by their SMILES. Structures can show the parent of a compound that is named as a salt. This is one part of the list. This data set is noisy: repeats of one test often differ as much as different tests do.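 Human kidney-derived cells stably carry a construct in which eight TEAD-binding elements drive luciferase, measured by luminescence in a drug-repurposing library screen. A hit is any compound whose signal exceeds the plate mean by more than five robust Z scores.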

This assay has as its system HEK293A TEAD-LUC reporter. As to the kind of experiment: TEAD-luciferase reporter activity (YAP activation), robust Z score vs plate; higher = stronger YAP/TEAD activation. The settings on record: 24 h. (In a reporter assay the amount or activity of a reporter protein is the signal.)

Regarding `Cc1ccc(-c2nc(N)nc3c2nnn3Cc2cccc(CO[C@H]3CCOC3)n2)o1`, the TEAD-luciferase reporter activity by setting is: (compound concentration: 200 nM) inactive: -1.61; (compound concentration: 2 uM) inactive: 0.352; (compound concentration: 10 uM) inactive: 0.274.
For `CC(C)C(=O)OC[C@@]1(N=[N+]=[N-])O[C@@H](n2ccc(N)nc2=O)[C@H](OC(=O)C(C)C)[C@@H]1OC(=O)C(C)C` [Balapiravir hydrochloride], in that order: inactive: -1.22, inactive: -2.06 and inactive: 1.57.
In the same order, the values of `CCN(CC)CCNc1ccc(C)c2sc3ccccc3c(=O)c12` are inactive: -0.95, inactive: -2.49 and inactive: 2.58.
Turning to `CCCCCCCCCCCCCCCCCCN(C)C`, the TEAD-luciferase reporter activity was inactive: -1.02 (compound concentration: 200 nM), inactive: 0.379 (compound concentration: 2 uM) and inactive: -0.0974 (compound concentration: 10 uM).
On to `CC(C)C[C@H](NC(=O)N1CCCCCC1)C(=O)N[C@H](Cc1cn(C)c2ccccc12)C(=O)N[C@H](Cc1ccccn1)C(=O)O`, for which the TEAD-luciferase reporter activity by setting is: (compound concentration: 200 nM) inactive: -0.309; (compound concentration: 2 uM) inactive: 1.39; (compound concentration: 10 uM) inactive: 0.511.
For `C/C=C/C[C@@H](C)C(=O)[C@H]1C(=O)N[C@@H](C(C)C)C(=O)N(C)CC(=O)N(C)[C@@H](CC(C)C)C(=O)N[C@@H](C(C)C)C(=O)N(C)[C@@H](CC(C)C)C(=O)N[C@@H](C)C(=O)N[C@H](C)C(=O)N(C)[C@@H](CC(C)C)C(=O)N(C)[C@@H](CC(C)C)C(=O)N(C)[C@@H](C(C)C)C(=O)N1C` [Valspodar], in that order: inactive: -2.14, inactive: -0.563 and inactive: -0.707.
For `CCCCc1nc(Cl)c(CO)n1Cc1ccc(-c2ccccc2C#N)cc1`, in that order: inactive: -0.566, inactive: -1.15 and inactive: -0.821.
As to `Cc1[nH]cnc1CC1CCc2c(C)c3ccccc3n2C1=O` (centres undefined), the TEAD-luciferase reporter activity is, setting by setting: (compound concentration: 200 nM) inactive: 0.614; (compound concentration: 2 uM) inactive: -0.22; (compound concentration: 10 uM) inactive: 0.241.
For the compound `N[C@@H]1CCCC[C@H]1N` (relative stereo) [trans-1,2-Diaminocyclohexane], the TEAD-luciferase reporter activity is, setting by setting: (compound concentration: 200 nM) inactive: -0.286; (compound concentration: 2 uM) inactive: -1.53; (compound concentration: 10 uM) inactive: -0.894.
In the same order, the values of `C1CCc2c(c3c(N4CCCC4)nc(N4CCCC4)nc3n2CCN2CCOCC2)C1` are inactive: -0.139, inactive: -1.43 and inactive: 0.912.
In the same order, the values of `O=C(c1ccccn1)c1cnn2c(-c3ccncc3)ccnc12` [ocinaplon controlled-release] are inactive: 0.632, inactive: -1.49 and inactive: -1.46.
For `O=C(Nc1ccc([N+](=O)[O-])cc1O)Nc1ccccc1Br`, the TEAD-luciferase reporter activity by setting is: (compound concentration: 200 nM) inactive: 3.81; (compound concentration: 2 uM) inactive: 1.86; (compound concentration: 10 uM) inactive: 1.91.
Take `Cc1cc(O)c(S(=O)(=O)O)cc1Cc1cc(S(=O)(=O)O)c(O)cc1C` [Dicresulene Hydrate]: the TEAD-luciferase reporter activity is inactive: -0.00772 (compound concentration: 200 nM), inactive: 0.69 (compound concentration: 2 uM) and inactive: 0.395 (compound concentration: 10 uM).
Turning to `Cc1c(N2C[C@@H]3CCCN[C@@H]3C2)c(F)cn2c(=O)c(C(=O)O)cc(C3CC3)c12`, the TEAD-luciferase reporter activity runs as follows: (compound concentration: 200 nM) inactive: -0.179; (compound concentration: 2 uM) inactive: 0.21; (compound concentration: 10 uM) inactive: -1.25.
On to `COc1cc(C)c(S(C)=O)cc1O` (centres undefined), for which the TEAD-luciferase reporter activity reads like this: (compound concentration: 200 nM) inactive: -1.8; (compound concentration: 2 uM) inactive: -1.58; (compound concentration: 10 uM) inactive: -1.51.
With `Cc1ccnc2c1NC(=O)c1cccnc1N2C1CC1` [Viramune], the TEAD-luciferase reporter activity by setting is: (compound concentration: 200 nM) inactive: -0.515; (compound concentration: 10 uM) inactive: 0.109.
On to `Cc1ccnc2c1NC(=O)c1cccnc1N2C1CC1` [nevirapine], for which, for the setting “compound concentration: 2 uM”, the TEAD-luciferase reporter activity was inactive: 0.675.
For `C[C@@H]1CCO[C@H]2Cn3cc(C(=O)NCc4ccc(F)cc4F)c(=O)c(O)c3C(=O)N12` [Dolutegravir sodium], the TEAD-luciferase reporter activity (compound concentration: 200 nM) was inactive: -0.723, the TEAD-luciferase reporter activity (compound concentration: 2 uM) was inactive: -1.06 and the TEAD-luciferase reporter activity (compound concentration: 10 uM) is inactive: 1.22.
On to `CN1CCN(C(c2ccccc2)c2ccc(Cl)cc2)CC1` (centres undefined) [Chlorcyclizine hydrochloride], for which the TEAD-luciferase reporter activity (compound concentration: 2 uM) is inactive: -0.506.
Regarding `CN1CCN(C(c2ccccc2)c2ccc(Cl)cc2)CC1` (centres undefined), the TEAD-luciferase reporter activity (compound concentration: 200 nM) is inactive: -0.538 and the TEAD-luciferase reporter activity (compound concentration: 10 uM) was inactive: -1.09.
For `O=C(O)CC(S)C(=O)O` (centres undefined), the TEAD-luciferase reporter activity runs as follows: (compound concentration: 200 nM) inactive: 0.784; (compound concentration: 10 uM) inactive: -0.673.
Turning to `O=C(O)CC(S)C(=O)O` (centres undefined) [Thiomalic acid], where the note is “compound concentration: 2 uM”, the TEAD-luciferase reporter activity was inactive: -1.6.
As for `O=C(c1ccccc1)N1CCC(N2Cc3ccccc3C2=O)CC1`, the TEAD-luciferase reporter activity runs as follows: (compound concentration: 200 nM) active: 5.72; (compound concentration: 10 uM) inactive: 2.79.
`CCCN(c1ccncc1)n1ccc2ccccc21` [besipirdine]: the TEAD-luciferase reporter activity by setting is: (compound concentration: 200 nM) inactive: -0.873; (compound concentration: 2 uM) inactive: -0.0526; (compound concentration: 10 uM) inactive: 2.56.
For `C[C@@H](NC(=O)[C@@H]1C[C@@]1(C)c1ccc(C(F)(F)F)cc1)c1cc(F)c(NS(C)(=O)=O)c(F)c1`, in that order: inactive: -0.853, inactive: 0.283 and inactive: 0.0357.
On to `c1ccc(C(CC2=NCCN2)c2ccccn2)cc1` (centres undefined), for which the TEAD-luciferase reporter activity (compound concentration: 200 nM) was inactive: 0.104, the TEAD-luciferase reporter activity (compound concentration: 2 uM) is inactive: -0.0496 and the TEAD-luciferase reporter activity (compound concentration: 10 uM) was inactive: -0.499.
For `N=C(N)NCCC[C@@H](NC(=O)[C@@H]1CCCN1C(=O)[C@@H]1CSSCCC(=O)N[C@@H](Cc2ccc(O)cc2)C(=O)N[C@@H](Cc2ccccc2)C(=O)N[C@@H](CCC(N)=O)C(=O)N[C@@H](CC(N)=O)C(=O)N1)C(=O)NCC(N)=O` [desmopressin], in that order: inactive: -3.23, inactive: -0.0199 and inactive: -2.58.
For `O=C(Oc1ccccc1C(=O)O)c1cccs1` [Tenosal], in that order: inactive: 0.0717, inactive: 0.316 and inactive: -0.761.
Take `O=C(O)c1cn(C2CC2)c2cc(N3CCNCC3)c(F)cc2c1=O` [Suroquin]: the TEAD-luciferase reporter activity (compound concentration: 2 uM) is inactive: -2.12.
`O=C(O)c1cn(C2CC2)c2cc(N3CCNCC3)c(F)cc2c1=O`: the TEAD-luciferase reporter activity runs as follows: (compound concentration: 200 nM) inactive: -0.135; (compound concentration: 10 uM) inactive: 1.99.
`CCCCCCCCCCCCCC[C@@H](O)[C@@H](O)[C@@H](N)CO`: the TEAD-luciferase reporter activity is inactive: -0.861 (compound concentration: 200 nM) and inactive: 0.936 (compound concentration: 10 uM).
For `CCCCCCCCCCCCCC[C@@H](O)[C@@H](O)[C@@H](N)CO` [Phytosphingosine hydrochloride], under “compound concentration: 2 uM”, the TEAD-luciferase reporter activity is inactive: -1.83.
Consider `CC1(C)CCCN1C(=O)c1ccc(-c2cc(F)ccc2OCC(=O)O)cc1Cl`, for which the TEAD-luciferase reporter activity (compound concentration: 200 nM) was inactive: -0.654, the TEAD-luciferase reporter activity (compound concentration: 2 uM) was inactive: 1.46 and the TEAD-luciferase reporter activity (compound concentration: 10 uM) was inactive: -1.25.
In the same order, the values of `COc1ccc(CCNC(=O)COc2cc(O)c3c(=O)cc(-c4ccccc4)oc3c2)cc1` are inactive: -0.973, inactive: -0.743 and inactive: -2.14.
In the same order, the values of `O=C(O)CCCc1ccccc1` are inactive: 0.81, inactive: 0.434 and inactive: -0.0424.
